In paper PMC3582507:
No constants are given. Whether binding was seen depends on the method and setting. Binding seen in cells or lysates may run through a third protein. Some entries that bind do so weakly or less than the wild type.

Chains of the proteins cited; added tags and fusions are not shown.
UniProt P19073: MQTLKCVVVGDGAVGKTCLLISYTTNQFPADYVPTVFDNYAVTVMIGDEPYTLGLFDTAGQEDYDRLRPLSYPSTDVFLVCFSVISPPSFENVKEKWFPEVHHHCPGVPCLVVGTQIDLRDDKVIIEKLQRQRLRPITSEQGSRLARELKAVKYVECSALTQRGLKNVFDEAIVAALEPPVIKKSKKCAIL

Biological target: T1, Gps1-TAP (S. cerevisiae) (UniProt Q99299)
T1 sequence: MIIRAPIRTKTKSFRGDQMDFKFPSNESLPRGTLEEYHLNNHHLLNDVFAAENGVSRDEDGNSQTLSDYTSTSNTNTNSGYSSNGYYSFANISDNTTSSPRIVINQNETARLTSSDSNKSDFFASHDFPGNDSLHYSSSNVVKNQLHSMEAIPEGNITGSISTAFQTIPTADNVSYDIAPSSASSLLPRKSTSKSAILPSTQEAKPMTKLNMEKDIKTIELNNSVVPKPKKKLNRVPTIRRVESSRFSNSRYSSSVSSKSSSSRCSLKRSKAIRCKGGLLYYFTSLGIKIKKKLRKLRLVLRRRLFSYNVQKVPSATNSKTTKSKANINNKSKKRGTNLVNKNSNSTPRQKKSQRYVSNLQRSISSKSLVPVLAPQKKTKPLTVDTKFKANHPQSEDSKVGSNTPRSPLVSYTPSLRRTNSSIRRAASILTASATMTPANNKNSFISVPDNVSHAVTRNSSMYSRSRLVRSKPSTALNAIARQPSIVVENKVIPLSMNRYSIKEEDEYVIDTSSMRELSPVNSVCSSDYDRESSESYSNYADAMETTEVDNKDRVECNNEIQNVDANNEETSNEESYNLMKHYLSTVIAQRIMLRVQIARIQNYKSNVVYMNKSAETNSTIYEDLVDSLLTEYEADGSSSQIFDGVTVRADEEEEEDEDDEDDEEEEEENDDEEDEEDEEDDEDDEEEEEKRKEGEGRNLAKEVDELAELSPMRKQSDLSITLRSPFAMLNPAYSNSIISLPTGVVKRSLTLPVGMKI
Test: co-IP; Gps1-TAP immunoprecipitated from yeast total extract (100-ml culture) with Dynabeads coupled to rabbit IgG; 50 mM Tris-HCl pH 7.5, 150 mM NaCl, 10% glycerol, 0.5% NP40; immunoblotting

binding: binds
Substance: Cdc42 (functional tagged protein of the co-immunoprecipitation) (from UniProt P19073 1-191)
